# PubChem BioAssay AID1259308 – NCATS | 2017
# Purpose: 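Genes whose loss raises luciferase production in HEK293 cells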 (primary screen)
# System: human HEK293 embryonic kidney cells stably expressing firefly luciferase (HEK-CMV-Luc2-Hygro)
# Reagents: single siRNA against human genes, 0.8 pmol siRNA per well
# Time to read-out: 72 h
# Read-out: 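Luciferase light (ONE-Glo) measured on one replicate plate set and viability (CellTiter-Glo) on the other, scaled to a negative control siRNA, with robust z-scores and luciferase per cell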
# Reading the numbers: total luciferase, z-score and total luciferase, % of control: higher = more reporter protein produced; luciferase per cell, z-score: higher = more reporter output per viable cell; viable cells, % of control: higher = more viable cells
# Rule for the call: 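Active when the median/MAD z-score for overall luciferase is greater than 3; a gene was taken forward for validation with new siRNAs if at least two of its three siRNAs passed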
# Calls: active = raised luciferase; inactive = no rise
# Here is an unselected part of about 59,000 deposited reagents. About 1,510 of them (2.6%) count as active. 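Calls use total luciferase alone and ignore viability, so some active siRNAs may act by altering cell number.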 Reagents against one gene are numbered here. Reagent sequences are not shown.
gene symbol,reagent,"total luciferase, z-score","total luciferase, % of control","luciferase per cell, z-score","viable cells, % of control",Call
SLF1 (SMC5/6 complex localization factor 1),1,-0.439,73.2,-0.746,99.5,inactive
SLF1 (SMC5/6 complex localization factor 1),2,-0.16,78.7,-0.437,98.7,inactive
SLF1 (SMC5/6 complex localization factor 1),3,-0.662,68.7,-0.624,90.5,inactive
KCNV1,1,-1.55,51.1,-1.47,84.2,inactive
KCNV1,2,-0.427,73.4,-0.389,90.9,inactive
KCNV1,3,0.195,85.8,0.0395,94.9,inactive
HOXB6 (homeobox B6),1,0.238,86.6,0.359,88.1,inactive
HOXB6 (homeobox B6),2,0.205,86,0.0884,93.8,inactive
HOXB6 (homeobox B6),3,-0.681,68.3,-0.929,97.5,inactive
CXCL13 (C-X-C motif chemokine ligand 13),1,0.438,90.6,0.137,97.6,inactive
CXCL13 (C-X-C motif chemokine ligand 13),2,0.786,97.5,1.08,82,inactive
CXCL13 (C-X-C motif chemokine ligand 13),3,1.61,114,1.89,77.4,inactive
PKDREJ (polycystin family receptor for egg jelly),1,2.89,139,3.06,69.6,inactive
PKDREJ (polycystin family receptor for egg jelly),2,-1.28,56.4,-1.69,98.2,inactive
PKDREJ (polycystin family receptor for egg jelly),3,0.29,87.6,0.417,87.8,inactive
LINC02873 (long independently transcribed non-coding RNA 2873),1,1.03,102,1.39,79.3,inactive
LINC02873 (long independently transcribed non-coding RNA 2873),2,0.549,92.8,0.806,83.9,inactive
LINC02873 (long independently transcribed non-coding RNA 2873),3,1.76,117,2.32,70.9,inactive
POU2AF1 (POU class 2 homeobox associating factor 1),1,-0.192,78.1,-0.0449,88.3,inactive
POU2AF1 (POU class 2 homeobox associating factor 1),2,-1.12,59.6,1.19,48.7,inactive
POU2AF1 (POU class 2 homeobox associating factor 1),3,0.522,92.3,1.41,71.2,inactive
C8orf58 (chromosome 8 open reading frame 58),1,-0.0198,81.5,0.853,72.7,inactive
C8orf58 (chromosome 8 open reading frame 58),2,-0.122,79.5,-0.102,91.2,inactive
C8orf58 (chromosome 8 open reading frame 58),3,0.16,85.1,0.158,91.2,inactive
LINC01124 (long independently transcribed non-coding RNA 1124),1,0.112,84.1,-0.172,98.4,inactive
LINC01124 (long independently transcribed non-coding RNA 1124),2,-0.161,78.7,-0.433,98.5,inactive
LINC01124 (long independently transcribed non-coding RNA 1124),3,-1.05,60.9,-1.31,96.1,inactive
RSU1 (Ras suppressor protein 1),1,0.895,99.7,1.09,83.6,inactive
RSU1 (Ras suppressor protein 1),2,-0.216,77.6,-0.379,95.8,inactive
RSU1 (Ras suppressor protein 1),3,-0.00175,81.9,-0.602,107,inactive

Part of the list above, set out differently:
| gene symbol | reagent | total luciferase, z-score | total luciferase, % of control | luciferase per cell, z-score | viable cells, % of control | Call |
| --- | --- | --- | --- | --- | --- | --- |
| C8orf58 (chromosome 8 open reading frame 58) | 2 | -0.122 | 79.5 | -0.102 | 91.2 | inactive |
| C8orf58 (chromosome 8 open reading frame 58) | 3 | 0.16 | 85.1 | 0.158 | 91.2 | inactive |
| LINC01124 (long independently transcribed non-coding RNA 1124) | 1 | 0.112 | 84.1 | -0.172 | 98.4 | inactive |
| LINC01124 (long independently transcribed non-coding RNA 1124) | 2 | -0.161 | 78.7 | -0.433 | 98.5 | inactive |
| LINC01124 (long independently transcribed non-coding RNA 1124) | 3 | -1.05 | 60.9 | -1.31 | 96.1 | inactive |
| RSU1 (Ras suppressor protein 1) | 1 | 0.895 | 99.7 | 1.09 | 83.6 | inactive |

Additional reagents:
gene symbol,reagent,"total luciferase, z-score","total luciferase, % of control","luciferase per cell, z-score","viable cells, % of control",Call
RGS14 (regulator of G protein signaling 14),1,-0.421,73.5,-0.503,93.8,inactive
RGS14 (regulator of G protein signaling 14),2,-1.12,59.6,-0.937,85.3,inactive
RGS14 (regulator of G protein signaling 14),3,-0.756,66.8,-0.178,78.3,inactive
ANGEL1 (angel homolog 1),1,-0.101,79.9,-0.829,111,inactive
ANGEL1 (angel homolog 1),2,-0.348,75,0.213,79.2,inactive
ANGEL1 (angel homolog 1),3,0.171,85.3,0.256,89.1,inactive
TM7SF3 (transmembrane 7 superfamily member 3),1,-0.604,69.9,-0.0272,78.6,inactive
TM7SF3 (transmembrane 7 superfamily member 3),2,-0.717,67.6,-1.57,114,inactive
TM7SF3 (transmembrane 7 superfamily member 3),3,0.689,95.6,0.346,97.5,inactive
GJA9 (gap junction protein alpha 9),1,1.36,109,0.555,105,inactive
GJA9 (gap junction protein alpha 9),2,-0.805,65.9,-1.2,101,inactive
GJA9 (gap junction protein alpha 9),3,-1.47,52.6,-1.09,78.2,inactive
MBOAT4 (membrane bound ghrelin O-acyltransferase MBOAT4),1,-0.344,75,1.27,60,inactive
MBOAT4 (membrane bound ghrelin O-acyltransferase MBOAT4),2,-0.95,63,-0.883,88.8,inactive
MBOAT4 (membrane bound ghrelin O-acyltransferase MBOAT4),3,-0.631,69.3,0.276,72,inactive
ZCCHC10 (zinc finger CCHC-type containing 10),1,-0.526,71.4,-0.269,85.7,inactive
ZCCHC10 (zinc finger CCHC-type containing 10),2,0.00599,82,-0.273,98.5,inactive
ZCCHC10 (zinc finger CCHC-type containing 10),3,0.84,98.6,0.919,86.5,inactive
GJD2 (gap junction protein delta 2),1,0.552,92.9,0.346,94.7,inactive
GJD2 (gap junction protein delta 2),2,-0.104,79.8,-0.339,97.5,inactive
GJD2 (gap junction protein delta 2),3,0.719,96.2,0.39,97,inactive
CA10 (carbonic anhydrase 10 (inactive)),1,0.267,87.2,0.447,86.6,inactive
CA10 (carbonic anhydrase 10 (inactive)),2,-0.438,73.2,-0.734,99.2,inactive
CA10 (carbonic anhydrase 10 (inactive)),3,2.66,135,1.59,99.2,inactive
NKIRAS1 (NFKB inhibitor interacting Ras like 1),1,0.0755,83.4,-0.167,97.4,inactive
NKIRAS1 (NFKB inhibitor interacting Ras like 1),2,-0.346,75,-0.571,97.4,inactive
NKIRAS1 (NFKB inhibitor interacting Ras like 1),3,-0.495,72,0.0159,80.2,inactive
